Patent US4069337A, “2-Substituted-indole-1-lower-alkanecarboxamides having anti-secretory or anti-ulcer activity” (Sterling Drug Inc., priority 1976, dated 1978)
Where “and” joins values, the source holds several entries; their conditions need not be identical. Identical values can stand only once. At least one read-out could not be matched to a standard name with certainty.

Test system: secretion of gastric fluids
Assay: anti-secretory activity in pylorus-ligated rats (method of Shay et al.)
Type: in vivo, male albino Wistar rats
Details: oral, 100 mg./kg.
Method: In standard biological test procedures, described generally by Shay et al., Gastroenterology 5, 43 (1945) and 26, 906 (1954) and by Selmici et al., Acta Physiol. Acad. Sci. Hung. […] Anti-secretory activity was determined in male albino Wistar rats weighing approximately 180 g. using the method described by Shay et al. which is described as follows: the rats were divided into medicated groups of at least five rats each and control groups of ten rats. The rats were medicated orally once daily for 2 days prior to stomach ligation and once again immediately following ligation. All drugs were administered as the free base, and control rats received only the vehicle of medication. […] The gastric fluid was centrifuged, the total volume, color, and volume of solids were recorded. The pH of the gastric fluid was then determined on a Beckman pH meter, and the "free" and "total" hydrochloric acid content of each gastric sample was determined by titrating an aliquot of the gastric fluid (diluted to approximately 10 ml. with distilled water) by titrating with 0.1N sodium hydroxide against Toepfers reagent and phenolphthalein, respectively. By determining the milliequivalents of hydrochloric acid per milliliter of gastric juice and knowing the total volume of gastric juice secreted by each rat, the total acid output can be calculated. […]

In the case of `Cc1c(C)n(CC(=O)NO)c2ccccc12` [Example 3B, 2,3-Dimethyl-1-indoleacetohydroxamic acid], the “% Inhibition of Free Acid” value is reported as 38% and the “pH of the gastric fluid” value is reported as 1.4 and 1.8.
